Test results reported in patent US20220380432A1, “Acylated Calcitonin Mimetics” (KeyBioscience AG, priority 2018, published 2022).
At least one compound was matched to its structure with a doubt left. Numbered stars: 1 amine (or outer) side, 2 acyl side, 3 side chain; on linkers, the order of the positions; unused ones are H or OH. Bridge positions count the residues as written; N and C are the ends. Square brackets hold non-standard residues; d marks the D form. Side chains are listed from the residue outwards. Peptide text beside a SMILES is read from it. * marks the point of attachment. C18 diacid = O=C(O)CCCCCCCCCCCCCCCCC(=O)*; γGlu = O=C(O)[C@H](CCC(=O)[*:2])N[*:1]; AEEA = NCCOCCOCC(=O)O; Aib = CC(C)(N)C(=O)O

Biological target: T1, Amylin Receptor (AMY-R) (Homo sapiens, UniProt P30988)
T1 construct: host or cells: CHO-K1
T1 sequence (P30988 25-474): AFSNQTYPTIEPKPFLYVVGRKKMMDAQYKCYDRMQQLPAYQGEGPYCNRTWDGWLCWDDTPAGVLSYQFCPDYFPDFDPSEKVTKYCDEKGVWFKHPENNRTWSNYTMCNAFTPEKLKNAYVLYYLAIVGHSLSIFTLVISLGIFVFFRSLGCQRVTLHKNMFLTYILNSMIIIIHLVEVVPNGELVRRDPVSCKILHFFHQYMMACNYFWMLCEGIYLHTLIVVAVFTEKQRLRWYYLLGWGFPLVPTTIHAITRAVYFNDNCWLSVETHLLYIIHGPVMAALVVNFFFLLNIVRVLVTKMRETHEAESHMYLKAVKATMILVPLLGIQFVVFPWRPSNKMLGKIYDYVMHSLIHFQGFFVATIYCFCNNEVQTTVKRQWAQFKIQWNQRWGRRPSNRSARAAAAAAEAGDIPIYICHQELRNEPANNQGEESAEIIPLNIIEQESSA
T1 sequence (O60896 24-148 partner): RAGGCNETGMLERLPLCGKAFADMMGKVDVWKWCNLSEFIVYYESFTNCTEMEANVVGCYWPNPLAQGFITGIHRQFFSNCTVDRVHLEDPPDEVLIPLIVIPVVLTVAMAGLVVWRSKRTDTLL
Assay: PathHunter β-arrestin recruitment assay, CHO-K1 CALCR+RAMP3 (AMY-R) cells
Type: cell-based
Conditions: read-out: EC50 on the AMYR

SMILES	EC50
CC(=O)N[C@H]1CSSC[C@@H](C(=O)NC(C)(C)C(=O)N[C@@H](CC(C)C)C(=O)NCC(=O)N[C@@H](CCCCNC(=O)COCCOCCNC(=O)COCCOCCNC(=O)COCCOCCNC(=O)CC[C@H](NC(=O)CCCCCCCCCCCCCCCCC(=O)O)C(=O)O)C(=O)N[C@@H](CC(C)C)C(=O)N[C@@H](CO)C(=O)N[C@@H](CCC(N)=O)C(=O)N[C@@H](CC(=O)O)C(=O)N[C@@H](CC(C)C)C(=O)N[C@@H](Cc2c[nH]cn2)C(=O)N[C@@H](CCCNC(=N)N)C(=O)N[C@@H](CC(C)C)C(=O)N[C@@H](CCC(N)=O)C(=O)N[C@H](C(=O)N[C@@H](Cc2ccc(O)cc2)C(=O)N2CCC[C@H]2C(=O)N[C@@H](CCCCN)C(=O)N[C@H](C(=O)N[C@@H](CC(=O)O)C(=O)N[C@H](C(=O)NCC(=O)N[C@@H](C)C(=O)N[C@@H](CC(N)=O)C(=O)N[C@@H](C)C(=O)N2CCC[C@H]2C(N)=O)C(C)C)[C@@H](C)O)[C@@H](C)O)NC(=O)[C@H]([C@@H](C)O)NC(=O)[C@H](CO)NC(=O)[C@H](CC(C)C)NC(=O)[C@H](CC(N)=O)NC(=O)[C@H](CO)NC1=O [KBP-385] (Ac-CSNLSTC[Aib]LGK([AEEA-AEEA-AEEA-γGlu-C18 diacid])LSQDLHRLQTYPKTDVGANAP-NH2; disulfide 1-7 (inferred))	~5 nM
CC(=O)N[C@H]1CSSC[C@@H](C(=O)NC(C)(C)C(=O)N[C@@H](CC(C)C)C(=O)NCC(=O)N[C@@H](CCCCNC(=O)COCCOCCNC(=O)CC[C@H](NC(=O)CCCCCCCCCCCCCCCCC(=O)O)C(=O)O)C(=O)N[C@@H](CC(C)C)C(=O)N[C@@H](CO)C(=O)N[C@@H](CCC(N)=O)C(=O)N[C@@H](CC(=O)O)C(=O)N[C@@H](CC(C)C)C(=O)N[C@@H](Cc2c[nH]cn2)C(=O)N[C@@H](CCCNC(=N)N)C(=O)N[C@@H](CC(C)C)C(=O)N[C@@H](CCC(N)=O)C(=O)N[C@H](C(=O)N[C@@H](Cc2ccc(O)cc2)C(=O)N2CCC[C@H]2C(=O)N[C@@H](CCCCN)C(=O)N[C@H](C(=O)N[C@@H](CC(=O)O)C(=O)N[C@H](C(=O)NCC(=O)N[C@@H](C)C(=O)N[C@@H](CC(N)=O)C(=O)N[C@@H](C)C(=O)N2CCC[C@H]2C(N)=O)C(C)C)[C@@H](C)O)[C@@H](C)O)NC(=O)[C@H]([C@@H](C)O)NC(=O)[C@H](CO)NC(=O)[C@H](CC(C)C)NC(=O)[C@H](CC(N)=O)NC(=O)[C@H](CO)NC1=O [KBP-384] (Ac-CSNLSTC[Aib]LGK([AEEA-γGlu-C18 diacid])LSQDLHRLQTYPKTDVGANAP-NH2; disulfide 1-7 (inferred))	~5 nM
